This is an account of results in PubChem BioAssay AID212 (DTP/NCI, 2004).

The test system of this assay is BDF1 mice, colon carcinoma 38 sc, T/C %. Description: NCI In Vivo Anticancer Drug Screen. Data for tumor model Colon Carcinoma 38 (subcutaneous) in B6D2F1 (BDF1) mice. The settings on record: T/C endpoint: median tumor weight (est.), higher T/C = larger tumour; for T/C: evaluated on day 20. Put shortly:
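Compound antitumor activity was assessed in mice carrying transplantable tumors. Survival or tumor size was recorded, and each value is the treated-group measurement divided by that of the vehicle-treated control group.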

[1] abbreviates: dose: 100.0 mg/kg/injection, schedule: Q07DX002 (ip), vehicle: saline with Tween-80.
[2] abbreviates: dose: 200.0 mg/kg/injection, schedule: Q07DX002 (ip), vehicle: saline with Tween-80.

The list is a part of this screen's results and no random one: it gathers tests that were run many times, whatever their T/C, doses with no T/C, and many T/C values between a quarter and a half above the control. Other doses and runs of a compound stand elsewhere. T/C is the treated group as % of the vehicle group. Schedules are NCI's codes, taken here to give the interval after Q, in days (D) or hours (H), and the number of doses after X. Some T/C values carry the count of animals alive at the toxicity check (mostly the fifth day); where none is given, no animal had died by that day. Some entries give survivors of the animals treated and no T/C: the source holds a T/C of zero for them, seemingly a mark for toxic or unscored doses. Survivors were counted at the toxicity check, usually on the fifth day, unless a day is given; later deaths do not show. Some entries hold several experiments; the results are listed from low to high.

`C1CCC2OCCOCCOC3CCCCC3OCCOCCOC2C1` (stereo unspecified): the T/C is 126 % of control (dose: 6.25 mg/kg/injection, schedule: Q07DX002 (ip), vehicle: Klucel (hydroxypropylcellulose) (HPC)); 125 % of control (dose: 12.5 mg/kg/injection, schedule: Q07DX002 (ip), vehicle: Klucel (hydroxypropylcellulose) (HPC)); 149 % of control (dose: 50.0 mg/kg/injection, schedule: Q07DX002 (ip), vehicle: Klucel (hydroxypropylcellulose) (HPC)).
As for `C(=N/NC1=NCCN1)/c1c2ccccc2c(/C=N\NC2=NCCN2)c2ccccc12`, under “dose: 2.5 mg/kg/injection, schedule: Q07DX002 (ip), vehicle: suspension in saline”, the T/C was 131 % of control [9 of 10 alive on day 20]. Moreover, the survivor count (dose: 80.0 mg/kg/injection, schedule: Q07DX002 (ip), vehicle: suspension in saline) was 0 of 10 on day 20.
Regarding `CN(CO)c1nc(N(C)CO)nc(N(C)CO)n1`, the T/C (dose: 6.25 mg/kg/injection, schedule: Q07DX003 (ip), vehicle: saline) was 132 % of control. Further, the survivor count (dose: 400.0 mg/kg/injection, schedule: Q07DX002 (ip), vehicle: saline with Tween-80) is on record as 1 of 10 on day 20.
As for `NC1=NC(O)C=C1` (stereo unspecified), under “dose: 120.0 mg/kg/injection, schedule: Q07DX002 (ip), vehicle: saline”, the survivor count was 3 of 10 on day 20.
In the case of `CNC(=O)OCc1c(COC(=O)NC)c(-c2ccc(Cl)c(Cl)c2)n2c1Cc1ccccc1C2`, the survivor count is reported as 6 of 10 on day 20 (dose: 400.0 mg/kg/injection, schedule: Q07DX002 (ip), vehicle: distilled water + Tween-80) and 2 of 10 on day 20 (dose: 800.0 mg/kg/injection, schedule: Q07DX002 (ip), vehicle: distilled water + Tween-80).
Turning to `O=C1CN(CCN2CC(=O)N(CN3CCOCC3)C(=O)C2)CC(=O)N1CN1CCOCC1`, the T/C (dose: 50.0 mg/kg/injection, schedule: Q07DX002 (ip), vehicle: water) is 137 % of control [9 of 10 alive on day 20]. The survivor count by setting is: (dose: 200.0 mg/kg/injection, schedule: Q07DX002 (ip), vehicle: water) 5 of 10 on day 20; (dose: 400.0 mg/kg/injection, schedule: Q07DX002 (ip), vehicle: water) 0 of 10 on day 20; (dose: 800.0 mg/kg/injection, schedule: Q07DX002 (ip), vehicle: water) 0 of 10 on day 20.
Consider `O=c1nc(Oc2ccccc2)nc2ncccn12`, for which the T/C reads like this: (dose: 12.5 mg/kg/injection, schedule: Q07DX002 (ip), vehicle: saline with Tween-80) 133 % of control [8 of 10 alive on day 20]; (dose: 25.0 mg/kg/injection, schedule: Q07DX002 (ip), vehicle: saline with Tween-80) 133 % of control [7 of 10 alive on day 20]. For the same molecule, the survivor count was 6 of 10 on day 20 under setting [1] and 0 of 10 on day 20 under setting [2].
In the case of `O=C1OCC2(C(=O)O)C(=O)OCC12` (stereo unspecified), the T/C was 125 % of control under setting [1] and 139 % of control under setting [2].
Regarding `CCCCn1cnc2c(=S)nc[nH]c21`, the survivor count (dose: 800.0 mg/kg/injection, schedule: Q07DX002 (ip), vehicle: saline with Tween-80) is 0 of 10 on day 20 and 1 of 9 on day 20.
